Laboratory results published in the supplement of paper PMC8728848.
This is one part of the list.

Tests used:
Assay in all cases: glycan array binding signal (z-score within array); higher = stronger binding
Details in all cases: glycan notation: IUPAC condensed, linker removed
[1] = target: Gal(b1-3)GlcNAc(b1-2)Man(a1-3)[Gal(b1-3)GlcNAc(b1-2)Man(a1-6)]Man(b1-4)GlcNAc(b1-4)GlcNAc
Summary of the method: (§1)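 Glycan array binding is given as a within-array Z-score, which can be read as non-binding when negative. The arrays, 3228 of them, came from the Consortium for Functional Glycomics database and were retained only where the protein sequence was available. Z-scores were averaged across arrays of the same protein sequence at different concentrations or buffers and across linkers.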

[2] = target: Gal(b1-3)GlcNAc(b1-2)Man(a1-3)[Gal(b1-3)GlcNAc(b1-2)Man(a1-6)]Man(b1-4)GlcNAc(b1-4)[Fuc(a1-6)]GlcNAc
Summary of the method: as §1

[3] = target: Gal(b1-3)GlcNAc(b1-2)Man(a1-3)[GlcNAc(b1-4)][Gal(b1-3)GlcNAc(b1-2)Man(a1-6)]Man(b1-4)GlcNAc(b1-4)GlcNAc
Summary of the method: as §1

[4] = target: Gal(b1-3)GlcNAc(b1-2)[Gal(b1-3)GlcNAc(b1-6)]Man(a1-6)[Gal(b1-3)GlcNAc(b1-2)Man(a1-3)]Man(b1-4)GlcNAc(b1-4)GlcNAc
Summary of the method: as §1

[5] = target: Gal(b1-3)GlcNAc(b1-3)Gal(b1-3)GlcNAc
Summary of the method: as §1

[6] = target: Gal(b1-3)GlcNAc(b1-3)Gal(b1-4)Glc
Summary of the method: as §1

[7] = target: Gal(b1-3)GlcNAc(b1-3)Gal(b1-4)GlcNAc
Summary of the method: as §1

[8] = target: Gal(b1-3)GlcNAc(b1-3)Gal(b1-4)GlcNAc(b1-2)Man(a1-3)[Gal(b1-3)GlcNAc(b1-3)Gal(b1-4)GlcNAc(b1-2)Man(a1-6)]Man(b1-4)GlcNAc(b1-4)GlcNAc
Summary of the method: as §1

[9] = target: Gal(b1-3)GlcNAc(b1-3)Gal(b1-4)GlcNAc(b1-2)[Gal(b1-3)GlcNAc(b1-3)Gal(b1-4)GlcNAc(b1-6)]Man(a1-6)[Gal(b1-3)GlcNAc(b1-3)Gal(b1-4)GlcNAc(b1-2)Man(a1-3)]Man(b1-4)GlcNAc(b1-4)[Fuc(a1-6)]GlcNAc
Summary of the method: as §1

[10] = target: Gal(b1-3)GlcNAc(b1-3)Gal(b1-4)GlcNAc(b1-3)Gal(b1-4)GlcNAc(b1-2)[Gal(b1-3)GlcNAc(b1-3)Gal(b1-4)GlcNAc(b1-3)Gal(b1-4)GlcNAc(b1-6)]Man(a1-6)[Gal(b1-3)GlcNAc(b1-3)Gal(b1-4)GlcNAc(b1-3)Gal(b1-4)GlcNAc(b1-2)Man(a1-3)]Man(b1-4)GlcNAc(b1-4)[Fuc(a1-6)]GlcNAc
Summary of the method: as §1

[11] = target: Gal(b1-3)GlcNAc(b1-3)Gal(b1-4)GlcNAc(b1-6)[Gal(b1-3)GlcNAc(b1-3)]Gal(b1-4)Glc
Summary of the method: as §1

[12] = target: Gal(b1-3)GlcNAc(b1-3)Gal(b1-4)[Fuc(a1-3)]GlcNAc
Summary of the method: as §1

[13] = target: Gal(b1-3)GlcNAc(b1-3)Gal(b1-4)[Fuc(a1-3)]GlcNAc(b1-6)[Gal(b1-3)GlcNAc(b1-3)]Gal(b1-4)Glc
Summary of the method: as §1

[14] = target: Gal(b1-3)GlcNAc(b1-3)GalNAc
Summary of the method: as §1

[15] = target: Gal(b1-3)GlcNAc(b1-6)Gal(b1-4)GlcNAc
Summary of the method: as §1

[16] = target: Gal(b1-3)GlcNAc(b1-6)GalNAc
Summary of the method: as §1

[17] = target: Gal(b1-3)GlcNAc(b1-6)[Gal(b1-3)]GalNAc
Summary of the method: as §1

Gal(b1-3)GlcNAc6S = target: Gal(b1-3)GlcNAc6S
Summary of the method: as §1

[18] = target: Gal(b1-3)[Fuc(a1-4)]GlcNAc
Summary of the method: as §1

[19] = target: Gal(b1-3)[Fuc(a1-4)]GlcNAc(b1-2)Man
Summary of the method: as §1

[20] = target: Gal(b1-3)[Fuc(a1-4)]GlcNAc(b1-2)Man(a1-3)[Gal(b1-3)[Fuc(a1-4)]GlcNAc(b1-2)Man(a1-6)]Man(b1-4)GlcNAc(b1-4)[Fuc(a1-6)]GlcNAc
Summary of the method: as §1

[21] = target: Gal(b1-3)[Fuc(a1-4)]GlcNAc(b1-3)Gal(b1-3)[Fuc(a1-4)]GlcNAc
Summary of the method: as §1

[22] = target: Gal(b1-3)[Fuc(a1-4)]GlcNAc(b1-3)Gal(b1-4)[Fuc(a1-3)]GlcNAc
Summary of the method: as §1

[23] = target: Gal(b1-3)[Fuc(a1-4)]GlcNAc(b1-6)GalNAc
Summary of the method: as §1

[24] = target: Gal(b1-3)[GlcNAc(b1-6)]GalNAc
Summary of the method: as §1

[25] = target: Gal(b1-3)[Neu5Ac(a2-6)]GalNAc
Summary of the method: as §1

[26] = target: Gal(b1-3)[Neu5Ac(a2-6)]GlcNAc(b1-4)Gal(b1-4)Glc
Summary of the method: as §1

[27] = target: Gal(b1-3)[Neu5Ac(b2-6)]GalNAc
Summary of the method: as §1

Gal(b1-4)Gal = target: Gal(b1-4)Gal
Summary of the method: as §1

[28] = target: Gal(b1-4)GalNAc(a1-3)[Fuc(a1-2)]Gal(b1-4)GlcNAc
Summary of the method: as §1

[29] = target: Gal(b1-4)GalNAc(b1-3)[Fuc(a1-2)]Gal(b1-4)GlcNAc
Summary of the method: as §1

Gal(b1-4)Glc = target: Gal(b1-4)Glc
Summary of the method: as §1

Gal(b1-4)Glc6S = target: Gal(b1-4)Glc6S
Summary of the method: as §1

Gal(b1-4)GlcNAc = target: Gal(b1-4)GlcNAc
Summary of the method: as §1

[30] = target: Gal(b1-4)GlcNAc(a1-6)Gal(b1-4)GlcNAc
Summary of the method: as §1

Gal(b1-4)GlcNAc(b1-2)Man = target: Gal(b1-4)GlcNAc(b1-2)Man
Summary of the method: as §1

[31] = target: Gal(b1-4)GlcNAc(b1-2)Man(a1-3)Man(b1-4)GlcNAc(b1-4)GlcNAc
Summary of the method: as §1

[32] = target: Gal(b1-4)GlcNAc(b1-2)Man(a1-3)[Gal(b1-4)GlcNAc(b1-2)Man(a1-6)]Man(b1-4)GlcNAc(b1-4)GlcNAc
Summary of the method: as §1

[33] = target: Gal(b1-4)GlcNAc(b1-2)Man(a1-3)[Gal(b1-4)GlcNAc(b1-2)Man(a1-6)]Man(b1-4)GlcNAc(b1-4)[Fuc(a1-6)]GlcNAc
Summary of the method: as §1

[34] = target: Gal(b1-4)GlcNAc(b1-2)Man(a1-3)[Gal(b1-4)GlcNAc(b1-2)Man(a1-6)][Gal(b1-4)GlcNAc(b1-4)]Man(b1-4)GlcNAc(b1-4)[Fuc(a1-6)]GlcNAc
Summary of the method: as §1

[35] = target: Gal(b1-4)GlcNAc(b1-2)Man(a1-3)[Gal(b1-4)GlcNAc(b1-2)Man(a1-6)][GlcNAc(b1-4)]Man(b1-4)GlcNAc(b1-4)[Fuc(a1-6)]GlcNAc
Summary of the method: as §1

[36] = target: Gal(b1-4)GlcNAc(b1-2)Man(a1-3)[GlcNAc(b1-2)Man(a1-6)]Man(b1-4)GlcNAc(b1-4)GlcNAc
Summary of the method: as §1

[37] = target: Gal(b1-4)GlcNAc(b1-2)Man(a1-3)[GlcNAc(b1-4)][Gal(b1-4)GlcNAc(b1-2)Man(a1-6)]Man(b1-4)GlcNAc(b1-4)GlcNAc
Summary of the method: as §1

[38] = target: Gal(b1-4)GlcNAc(b1-2)Man(a1-3)[Man(a1-6)]Man(b1-4)GlcNAc(b1-4)GlcNAc
Summary of the method: as §1

[39] = target: Gal(b1-4)GlcNAc(b1-2)Man(a1-6)Man(b1-4)GlcNAc(b1-4)GlcNAc
Summary of the method: as §1

B1: Ovorubin (Pomacea canaliculata), J7I2T6 (protein)
chain: MFVATSLLLAIATLVVRASPHNYLIMDIEPPKSVSERDILNLLSPLQVKHSFRVTGSTRLLIVIRLDAQSYEKLDEITVPGKVEVIPAVNMADTMERCGVSWPRVELTDDNVTLFESESTLTDVTKEQLKAMLIGYGEHMSGLLQAHRFEYYQAAGATPHRHFVFVNSVPDEIEVFGREGVDIWGGPGEFVVKPQYVTRI
[1]
  glycan array binding signal (z-score): 0.676
[2]
  glycan array binding signal (z-score): -0.835
[3]
  glycan array binding signal (z-score): 0.808
[4]
  glycan array binding signal (z-score): 4.93
[5]
  glycan array binding signal (z-score): -0.763
[6]
  glycan array binding signal (z-score): -0.857
[7]
  glycan array binding signal (z-score): -0.789
[8]
  glycan array binding signal (z-score): -0.509
[9]
  glycan array binding signal (z-score): -0.022
[10]
  glycan array binding signal (z-score): 2.9
[11]
  glycan array binding signal (z-score): -0.801
[12]
  glycan array binding signal (z-score): -0.529
[13]
  glycan array binding signal (z-score): -0.847
[14]
  glycan array binding signal (z-score): -0.817
[15]
  glycan array binding signal (z-score): -0.475
[16]
  glycan array binding signal (z-score): 0.837
[17]
  glycan array binding signal (z-score): 0.3
Gal(b1-3)GlcNAc6S
  glycan array binding signal (z-score): 1.04
[18]
  glycan array binding signal (z-score): 0.323
[19]
  glycan array binding signal (z-score): 0.038
[20]
  glycan array binding signal (z-score): 0.299
[21]
  glycan array binding signal (z-score): -0.872
[22]
  glycan array binding signal (z-score): -0.195
[23]
  glycan array binding signal (z-score): 0.733
[24]
  glycan array binding signal (z-score): -0.56
[25]
  glycan array binding signal (z-score): -0.732
[26]
  glycan array binding signal (z-score): 0.038
[27]
  glycan array binding signal (z-score): -0.862
Gal(b1-4)Gal
  glycan array binding signal (z-score): -0.269
[28]
  glycan array binding signal (z-score): -0.534
[29]
  glycan array binding signal (z-score): -0.791
Gal(b1-4)Glc
  glycan array binding signal (z-score): 0.37
Gal(b1-4)Glc6S
  glycan array binding signal (z-score): -0.154
Gal(b1-4)GlcNAc
  glycan array binding signal (z-score): -0.56
[30]
  glycan array binding signal (z-score): -0.871
Gal(b1-4)GlcNAc(b1-2)Man
  glycan array binding signal (z-score): 0.118
[31]
  glycan array binding signal (z-score): -0.117
[32]
  glycan array binding signal (z-score): -0.589
[33]
  glycan array binding signal (z-score): -0.364
[34]
  glycan array binding signal (z-score): -0.781
[35]
  glycan array binding signal (z-score): -0.632
[36]
  glycan array binding signal (z-score): -0.186
[37]
  glycan array binding signal (z-score): -0.29
[38]
  glycan array binding signal (z-score): -0.423
[39]
  glycan array binding signal (z-score): -0.595
